# Source: the supplement of paper PMC11732987, “Enantioselective OTUD7B fragment discovery through chemoproteomics screening and high-throughput optimisation” (Communications Chemistry, 2025)
# Chains of the proteins cited; added tags and fusions are not shown. Lines headed by an entry give the natural chain unless they say otherwise; changes in a name come on top. Residues count along the entry.
# UniProt Q86XA9: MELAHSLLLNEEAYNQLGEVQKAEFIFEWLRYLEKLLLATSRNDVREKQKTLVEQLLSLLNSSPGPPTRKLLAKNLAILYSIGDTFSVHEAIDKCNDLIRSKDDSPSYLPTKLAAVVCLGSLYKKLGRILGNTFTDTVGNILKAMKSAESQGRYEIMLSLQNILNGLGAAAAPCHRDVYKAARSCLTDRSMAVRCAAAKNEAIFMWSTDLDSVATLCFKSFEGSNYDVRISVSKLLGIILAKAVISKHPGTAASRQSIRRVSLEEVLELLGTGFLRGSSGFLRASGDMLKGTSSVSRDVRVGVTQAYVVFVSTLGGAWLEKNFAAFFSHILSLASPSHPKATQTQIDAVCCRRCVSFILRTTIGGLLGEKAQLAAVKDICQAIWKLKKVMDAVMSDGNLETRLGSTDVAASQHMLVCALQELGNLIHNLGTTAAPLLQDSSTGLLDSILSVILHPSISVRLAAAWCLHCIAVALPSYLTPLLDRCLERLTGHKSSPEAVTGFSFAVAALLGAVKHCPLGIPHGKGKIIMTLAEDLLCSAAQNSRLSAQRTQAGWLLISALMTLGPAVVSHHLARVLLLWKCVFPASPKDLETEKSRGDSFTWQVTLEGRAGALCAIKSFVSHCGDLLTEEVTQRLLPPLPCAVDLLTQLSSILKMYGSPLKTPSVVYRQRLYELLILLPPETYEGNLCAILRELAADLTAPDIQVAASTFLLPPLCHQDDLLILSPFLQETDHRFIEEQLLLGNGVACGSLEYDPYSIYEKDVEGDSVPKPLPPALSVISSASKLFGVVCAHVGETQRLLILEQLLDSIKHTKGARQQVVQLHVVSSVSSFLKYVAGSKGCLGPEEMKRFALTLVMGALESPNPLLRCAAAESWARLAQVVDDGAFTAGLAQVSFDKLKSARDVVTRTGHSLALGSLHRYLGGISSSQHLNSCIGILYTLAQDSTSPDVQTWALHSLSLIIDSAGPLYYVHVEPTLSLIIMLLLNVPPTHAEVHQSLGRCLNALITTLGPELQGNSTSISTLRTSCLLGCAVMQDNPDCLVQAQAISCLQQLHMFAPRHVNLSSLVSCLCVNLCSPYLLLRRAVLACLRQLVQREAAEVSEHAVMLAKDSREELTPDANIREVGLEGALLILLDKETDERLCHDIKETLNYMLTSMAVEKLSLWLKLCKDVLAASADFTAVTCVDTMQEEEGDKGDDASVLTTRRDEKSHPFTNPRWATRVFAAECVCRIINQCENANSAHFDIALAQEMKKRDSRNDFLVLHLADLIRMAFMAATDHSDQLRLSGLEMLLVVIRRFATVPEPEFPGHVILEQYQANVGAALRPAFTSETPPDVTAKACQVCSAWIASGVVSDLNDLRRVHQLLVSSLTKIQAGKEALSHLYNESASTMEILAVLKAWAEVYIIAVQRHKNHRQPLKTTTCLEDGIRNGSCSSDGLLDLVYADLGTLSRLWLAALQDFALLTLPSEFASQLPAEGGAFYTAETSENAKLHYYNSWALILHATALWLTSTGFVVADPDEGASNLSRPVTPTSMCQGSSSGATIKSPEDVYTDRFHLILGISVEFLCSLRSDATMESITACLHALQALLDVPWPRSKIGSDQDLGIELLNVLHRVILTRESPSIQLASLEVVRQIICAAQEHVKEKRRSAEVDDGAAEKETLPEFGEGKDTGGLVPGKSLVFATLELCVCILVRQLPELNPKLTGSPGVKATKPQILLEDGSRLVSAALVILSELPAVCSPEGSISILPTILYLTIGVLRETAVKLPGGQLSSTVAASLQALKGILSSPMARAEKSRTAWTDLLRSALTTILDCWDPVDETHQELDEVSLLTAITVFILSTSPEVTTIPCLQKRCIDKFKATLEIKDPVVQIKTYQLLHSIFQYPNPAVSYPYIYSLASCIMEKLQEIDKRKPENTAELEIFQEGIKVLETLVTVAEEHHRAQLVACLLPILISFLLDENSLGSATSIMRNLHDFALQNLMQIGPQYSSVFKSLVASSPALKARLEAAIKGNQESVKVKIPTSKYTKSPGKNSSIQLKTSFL
# UniProt Q9H6D7: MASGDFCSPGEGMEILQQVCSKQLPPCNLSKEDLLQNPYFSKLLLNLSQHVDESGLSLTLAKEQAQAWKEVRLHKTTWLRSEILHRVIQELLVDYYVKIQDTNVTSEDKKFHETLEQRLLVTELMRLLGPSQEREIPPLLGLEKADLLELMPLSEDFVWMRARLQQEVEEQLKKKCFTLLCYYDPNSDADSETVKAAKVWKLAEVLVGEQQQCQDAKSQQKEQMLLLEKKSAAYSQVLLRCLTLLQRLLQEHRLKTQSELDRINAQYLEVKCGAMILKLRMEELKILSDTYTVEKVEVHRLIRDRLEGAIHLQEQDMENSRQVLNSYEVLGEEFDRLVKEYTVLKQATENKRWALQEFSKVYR
# UniProt O75330: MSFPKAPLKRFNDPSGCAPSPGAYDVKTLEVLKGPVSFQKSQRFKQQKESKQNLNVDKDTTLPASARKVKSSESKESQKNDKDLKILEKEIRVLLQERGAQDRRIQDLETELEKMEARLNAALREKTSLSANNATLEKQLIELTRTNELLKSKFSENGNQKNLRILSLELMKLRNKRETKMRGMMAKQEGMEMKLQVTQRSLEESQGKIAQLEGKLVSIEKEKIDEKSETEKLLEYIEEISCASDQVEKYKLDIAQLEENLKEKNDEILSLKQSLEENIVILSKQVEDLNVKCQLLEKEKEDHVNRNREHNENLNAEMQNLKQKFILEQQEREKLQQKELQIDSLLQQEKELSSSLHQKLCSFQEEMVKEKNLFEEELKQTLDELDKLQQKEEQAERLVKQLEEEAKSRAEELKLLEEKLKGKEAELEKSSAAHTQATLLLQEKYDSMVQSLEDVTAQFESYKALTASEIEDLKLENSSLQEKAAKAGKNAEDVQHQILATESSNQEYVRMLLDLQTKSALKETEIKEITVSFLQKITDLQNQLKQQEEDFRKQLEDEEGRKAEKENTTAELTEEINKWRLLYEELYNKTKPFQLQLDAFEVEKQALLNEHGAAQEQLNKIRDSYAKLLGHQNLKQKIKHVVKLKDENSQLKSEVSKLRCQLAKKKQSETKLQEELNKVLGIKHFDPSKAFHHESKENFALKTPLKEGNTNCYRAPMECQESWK
# UniProt Q86YM7: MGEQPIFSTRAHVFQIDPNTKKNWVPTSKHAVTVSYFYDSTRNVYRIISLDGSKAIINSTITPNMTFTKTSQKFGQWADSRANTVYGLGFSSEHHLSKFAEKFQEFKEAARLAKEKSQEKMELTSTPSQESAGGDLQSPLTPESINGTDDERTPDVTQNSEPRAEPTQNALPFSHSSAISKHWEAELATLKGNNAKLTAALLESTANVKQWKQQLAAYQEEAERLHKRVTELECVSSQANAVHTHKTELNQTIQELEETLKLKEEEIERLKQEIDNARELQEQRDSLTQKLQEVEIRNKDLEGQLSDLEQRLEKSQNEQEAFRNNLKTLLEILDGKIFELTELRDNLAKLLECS
# UniProt Q9ULT8, 1785-1816: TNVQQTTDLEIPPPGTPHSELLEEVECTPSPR
# UniProt O00291: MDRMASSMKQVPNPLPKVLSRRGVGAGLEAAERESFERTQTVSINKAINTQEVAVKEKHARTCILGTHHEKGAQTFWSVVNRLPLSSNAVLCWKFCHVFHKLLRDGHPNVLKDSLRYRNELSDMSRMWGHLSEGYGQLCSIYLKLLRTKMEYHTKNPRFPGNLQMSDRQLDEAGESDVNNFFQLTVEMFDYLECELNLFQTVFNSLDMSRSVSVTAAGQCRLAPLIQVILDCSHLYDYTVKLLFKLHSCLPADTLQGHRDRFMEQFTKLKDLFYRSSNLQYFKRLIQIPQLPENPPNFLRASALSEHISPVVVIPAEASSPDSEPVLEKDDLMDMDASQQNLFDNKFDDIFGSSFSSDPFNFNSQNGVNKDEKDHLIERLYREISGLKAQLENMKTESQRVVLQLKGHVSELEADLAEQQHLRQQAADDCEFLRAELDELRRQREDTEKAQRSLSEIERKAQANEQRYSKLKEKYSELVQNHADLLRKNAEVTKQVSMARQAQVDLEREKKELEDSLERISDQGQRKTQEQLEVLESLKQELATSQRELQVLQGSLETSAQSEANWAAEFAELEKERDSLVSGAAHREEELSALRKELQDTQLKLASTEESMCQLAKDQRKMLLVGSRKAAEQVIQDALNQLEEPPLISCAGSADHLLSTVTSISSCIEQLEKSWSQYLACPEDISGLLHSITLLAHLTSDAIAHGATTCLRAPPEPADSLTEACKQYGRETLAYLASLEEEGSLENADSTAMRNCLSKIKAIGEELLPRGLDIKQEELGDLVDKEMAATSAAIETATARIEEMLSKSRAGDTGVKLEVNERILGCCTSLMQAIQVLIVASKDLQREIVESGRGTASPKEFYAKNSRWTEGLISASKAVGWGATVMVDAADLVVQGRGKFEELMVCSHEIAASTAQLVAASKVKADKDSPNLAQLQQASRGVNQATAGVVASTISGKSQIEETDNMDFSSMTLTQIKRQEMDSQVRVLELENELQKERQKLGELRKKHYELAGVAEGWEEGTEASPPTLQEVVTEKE
# UniProt Q7Z4Q2: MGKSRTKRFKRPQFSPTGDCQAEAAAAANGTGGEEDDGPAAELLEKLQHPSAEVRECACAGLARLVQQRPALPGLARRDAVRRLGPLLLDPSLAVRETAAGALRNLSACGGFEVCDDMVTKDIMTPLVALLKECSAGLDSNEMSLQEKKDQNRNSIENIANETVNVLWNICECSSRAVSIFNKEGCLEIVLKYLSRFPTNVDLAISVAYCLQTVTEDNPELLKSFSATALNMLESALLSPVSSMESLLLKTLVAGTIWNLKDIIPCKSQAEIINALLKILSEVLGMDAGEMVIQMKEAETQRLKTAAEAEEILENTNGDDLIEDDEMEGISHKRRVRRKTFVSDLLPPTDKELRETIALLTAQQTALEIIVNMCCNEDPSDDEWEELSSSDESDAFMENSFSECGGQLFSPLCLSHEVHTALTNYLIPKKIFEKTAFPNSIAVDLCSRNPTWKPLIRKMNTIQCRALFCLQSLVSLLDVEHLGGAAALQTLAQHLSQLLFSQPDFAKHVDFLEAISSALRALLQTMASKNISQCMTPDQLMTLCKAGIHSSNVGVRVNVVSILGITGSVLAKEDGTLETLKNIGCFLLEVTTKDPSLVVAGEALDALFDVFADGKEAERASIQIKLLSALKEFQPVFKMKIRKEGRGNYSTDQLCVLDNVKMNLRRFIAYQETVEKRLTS
# UniProt P21266: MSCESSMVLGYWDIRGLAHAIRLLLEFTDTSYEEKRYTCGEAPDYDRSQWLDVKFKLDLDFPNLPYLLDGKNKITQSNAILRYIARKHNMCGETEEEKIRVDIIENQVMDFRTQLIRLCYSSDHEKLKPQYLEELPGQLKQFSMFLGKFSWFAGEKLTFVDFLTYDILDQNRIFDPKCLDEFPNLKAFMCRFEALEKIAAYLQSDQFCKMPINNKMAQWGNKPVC
# UniProt Q8WUA4: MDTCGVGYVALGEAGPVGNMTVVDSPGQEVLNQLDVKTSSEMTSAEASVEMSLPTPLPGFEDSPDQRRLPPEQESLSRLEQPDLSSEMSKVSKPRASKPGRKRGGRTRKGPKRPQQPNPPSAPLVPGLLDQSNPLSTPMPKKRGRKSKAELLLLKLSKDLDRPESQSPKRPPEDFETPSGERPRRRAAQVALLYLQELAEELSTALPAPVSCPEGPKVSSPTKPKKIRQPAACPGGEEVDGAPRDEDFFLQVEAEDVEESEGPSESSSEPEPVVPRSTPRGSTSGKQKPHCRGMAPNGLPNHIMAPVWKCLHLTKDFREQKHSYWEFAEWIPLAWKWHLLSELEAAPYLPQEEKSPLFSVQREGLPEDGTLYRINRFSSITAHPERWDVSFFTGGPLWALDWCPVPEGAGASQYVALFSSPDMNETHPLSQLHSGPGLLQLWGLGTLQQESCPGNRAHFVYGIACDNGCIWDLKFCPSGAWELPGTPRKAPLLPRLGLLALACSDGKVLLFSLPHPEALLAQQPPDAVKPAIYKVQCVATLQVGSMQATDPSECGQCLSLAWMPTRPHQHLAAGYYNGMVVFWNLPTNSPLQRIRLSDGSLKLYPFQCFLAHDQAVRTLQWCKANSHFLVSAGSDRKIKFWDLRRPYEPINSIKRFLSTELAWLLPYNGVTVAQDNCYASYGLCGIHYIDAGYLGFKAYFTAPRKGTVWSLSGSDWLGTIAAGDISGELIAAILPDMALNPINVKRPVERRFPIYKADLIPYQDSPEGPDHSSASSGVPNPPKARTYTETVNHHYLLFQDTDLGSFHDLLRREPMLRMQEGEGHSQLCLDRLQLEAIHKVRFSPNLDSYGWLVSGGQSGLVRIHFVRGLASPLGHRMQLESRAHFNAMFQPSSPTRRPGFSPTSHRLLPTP
# This is one part of the list. The data scatter; read single values as rough.
# Compound: ClCC(=O)N[C@@H]1CCCc2ccccc12
# Test: log2 mean competition ratio of IA-DTB cysteine labelling (DMSO/compound) (log2 ratio); higher = stronger cysteine engagement by compound
# Settings: 50 µM; treatment time: 4 h; cell line lysate: HEK293T
# Method: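 IA-DTB competitive cysteine chemoproteomics in HEK293T RIPA lysate. Lysates were treated with compound 29 or 30 at 50 or 200 µM for 4 h, then IA-DTB (500 µM, 1 h), trypsin-digested, NeutrAvidin-enriched and analysed by diaPASEF. Competition ratio = intensity DMSO / intensity compound (n=4 treated, n=64 DMSO); binding: mean log2 CR ≥ 1 and p ≤ 0.05 plus QC filters. Target is the cysteine site.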
row,Target,log2 mean competition ratio
1,HEATR5A C614 (UniProt Q86XA9),-0.0493
2,HAUS4 C272 (UniProt Q9H6D7),-0.238
3,HMMR C712 (UniProt O75330),0.13
4,HEATR5A C841 (UniProt Q86XA9),0.166
5,HMMR C361 (UniProt O75330),0.667
6,HELZ C256 (UniProt P42694),-0.0367
7,HOMER1 C234 (UniProt Q86YM7),-0.172
8,HECTD1 C1811 (UniProt Q9ULT8),-0.469
9,GTPBP1 C313 (UniProt O00178),0.0814
10,HIP1 C220 (UniProt O00291),0.175
11,HMGCL C323 (UniProt P35914),-0.1
12,HLA-E C185,-0.0327
13,GTF2I C745 (UniProt P78347),0.0767
14,HNRNPUL2 C308 (UniProt Q1KMD3),0.198
15,HBS1L C529 (UniProt Q9Y450),-0.245
16,HAUS5 C446 (UniProt O94927),-0.102
17,HNRNPM C676,0.2
18,HELB C60 (UniProt Q8NG08),0.00259
19,HEATR3 C134 (UniProt Q7Z4Q2),0.0748

row,Target,log2 mean competition ratio
1,GSTM3 C39 (UniProt P21266),-0.0451
2,GTPBP3 C46 (UniProt Q969Y2),0.272
3,HLTF C942 (UniProt Q14527),0.194
4,HK1 C823 (UniProt P19367),-0.0362
5,HEATR3 C186 (UniProt Q7Z4Q2),0.0346
6,GTF3C2 C503 (UniProt Q8WUA4),0.245
7,HMCES C7 (UniProt Q96FZ2),0.465
8,HARS1 C235,-0.125
9,HNRNPD C126,-0.278
10,HEATR3 C446 (UniProt Q7Z4Q2),0.41
11,GTPBP4 C336 (UniProt Q9BZE4),-0.0662
12,GTF3C2 C828 (UniProt Q8WUA4),-0.132
13,HAUS4 C213 (UniProt Q9H6D7),-0.452
14,HDAC7 C904 (UniProt Q8WUI4),0.00659
15,HECTD4 C1084,-0.0593
16,GTF3C4 C174 (UniProt Q9UKN8),0.426
17,GTPBP2 C36 (UniProt Q9BX10),0.307
18,GYS1 C699 (UniProt P13807),0.12

# Same assay, conditions: 200 µM; treatment time: 4 h; cell line lysate: HEK293T
row,Target,log2 mean competition ratio
1,HEATR5A C614 (UniProt Q86XA9),0.0291
2,HAUS4 C272 (UniProt Q9H6D7),-0.114
3,HMMR C712 (UniProt O75330),0.0789
4,HEATR5A C841 (UniProt Q86XA9),-0.127
5,HMMR C361 (UniProt O75330),0.067
6,HELZ C256 (UniProt P42694),-0.222
7,HOMER1 C234 (UniProt Q86YM7),-0.37
8,HECTD1 C1811 (UniProt Q9ULT8),0.381
9,GTPBP1 C313 (UniProt O00178),-0.492
10,HIP1 C220 (UniProt O00291),0.885
11,HMGCL C323 (UniProt P35914),0.0864
12,HLA-E C185,0.301
13,GTF2I C745 (UniProt P78347),0.0119
14,HNRNPUL2 C308 (UniProt Q1KMD3),-0.147
15,HBS1L C529 (UniProt Q9Y450),-0.0266
16,HAUS5 C446 (UniProt O94927),-0.11
17,HNRNPM C676,0.171
18,HELB C60 (UniProt Q8NG08),0.135
19,HEATR3 C134 (UniProt Q7Z4Q2),-0.16

row,Target,log2 mean competition ratio
1,GSTM3 C39 (UniProt P21266),-0.3
2,GTPBP3 C46 (UniProt Q969Y2),0.0689
3,HLTF C942 (UniProt Q14527),0.297
4,HK1 C823 (UniProt P19367),-0.303
5,HEATR3 C186 (UniProt Q7Z4Q2),-0.163
6,GTF3C2 C503 (UniProt Q8WUA4),0.0164
7,HMCES C7 (UniProt Q96FZ2),-0.511
8,HARS1 C235,-0.0836
9,HNRNPD C126,-0.119
10,HEATR3 C446 (UniProt Q7Z4Q2),0.278
11,GTPBP4 C336 (UniProt Q9BZE4),0.193
12,GTF3C2 C828 (UniProt Q8WUA4),0.104
13,HAUS4 C213 (UniProt Q9H6D7),0.163
14,HDAC7 C904 (UniProt Q8WUI4),-0.121
15,HECTD4 C1084,0.118
16,GTF3C4 C174 (UniProt Q9UKN8),-0.112
17,GTPBP2 C36 (UniProt Q9BX10),-0.22
18,GYS1 C699 (UniProt P13807),-0.24
